# Measurements published in US12545706B2, “Pharmaceutical composition for preventing or treating Behcet's disease and rheumatoid arthritis, containing peptide or mixture thereof as active ingredient” (AJOU UNIVERSITY INDUSTRY-ACADEMIC COOPERATION FOUNDATION, priority 2019, dated 2026).
# Part of at least one peptide drawing is inferred or uncertain, most often the ends. Where a SMILES comes first, the peptide text is derived from it.
# System: mouse animal model with Behcet's disease (HSV type 1 infected ICR mice)
# Test: Therapeutic effect on skin ulcers and skin inflammation in mouse animal model with Behcet's disease
# Assay type: in vivo
# Details: peptides administered respectively; symptoms visually checked; FIG. 1
# Procedure: Male ICR mice (4-5 weeks of age) were infected with HSV type 1 (1×10^6, 20 μL) grown in Vero cells as previously reported (S. Sohn et al., Eur J Dermatol, 8 (1): 21-23, 1998). 10 days after the first virus inoculation, the mice were infected twice by inoculating the virus again and monitored for 32 weeks. Animals were treated according to the guidelines provided by Institutional Animal Care and Use Committee (IACUC) of School of Medicine at Ajou University. The study protocol was approved by IACUC (Approval No.: AMC-2016-0010).
# Symptoms include skin ulcers, skin pustule, genital ulcers, erythema, mouth ulcers, ear inflammation, arthritis, red eyes (left and right), decreased visual acuity (left and right), weight loss, and facial swelling. Mouth ulcers, genital ulcers, skin ulcers, and eye symptoms were classified as major symptoms while the other symptoms were mild.
# Mice showing one or more major symptoms with one mild symptom were considered as BD mice, the score for each symptom was calculated as 1, and the sum of the scores was used to determine the severity of BD. When symptoms disappeared or the size of the lesion was reduced by 20% or more, it was classified as symptom improved state. The disease severity score for BD was calculated based on the BD Activity Index as described in the BD Activity Form (www.behcet.ws/pdf/BehcetsDiseaseActivityForm.pdf).
# The P1, P2, P3, P4, P5 peptides or an appropriate mixture prepared in Example 1 were mixed with physiological saline for injection and injected into the abdominal cavity of mice with inflammatory disease or treated in the form of an external skin preparation in the previously prepared mouse animal model with Behcet's disease. The improvement of symptoms was visually checked after 5 days and 10 days, or at 2 weeks and 4 weeks, which is shown in FIG. 1.
row,SMILES,skin ulcers and skin inflammation
1,"CC[C@H](C)[C@H](NC(=O)[C@@H](N)CC(C)C)C(=O)N[C@@H](CS)C(=O)N1CCC[C@H]1C(=O)N[C@@H](CCC(=O)O)C(=O)N[C@@H](CCCCN)C(=O)N[C@@H](Cc1ccc(O)cc1)C(=O)N[C@@H](CS)C(=O)N[C@@H](CC(N)=O)C(=O)N[C@@H](CCCCN)C(=O)N[C@H](C(=O)N[C@@H](Cc1c[nH]cn1)C(=O)N[C@H](C(=O)O)[C@@H](C)O)C(C)C [P1, LICPEKYCNKVHT] (H-LICPEKYCNKVHT-OH; N-terminus and C-terminus assumed)",alleviated
2,"CC(C)[C@H](NC(=O)[C@H](CCCCN)NC(=O)[C@H](CC(N)=O)NC(=O)[C@H](CS)NC(=O)[C@@H](N)Cc1ccc(O)cc1)C(=O)N[C@@H](Cc1c[nH]cn1)C(=O)N[C@H](C(=O)N[C@@H](CS)C(=O)N[C@@H](CCCNC(=N)N)C(=O)N[C@@H](CC(N)=O)C(=O)NCC(=O)O)[C@@H](C)O [P2, YCNKVHTCRNG] (H-YCNKVHTCRNG-OH; N-terminus and C-terminus assumed)",alleviated
3,"CC[C@H](C)[C@H](NC(=O)[C@H](CC(N)=O)NC(=O)[C@H](CCC(=O)O)NC(=O)CNC(=O)[C@H](CC(N)=O)NC(=O)[C@H](CCCNC(=N)N)NC(=O)[C@H](CS)NC(=O)[C@@H](NC(=O)[C@@H](N)Cc1c[nH]cn1)[C@@H](C)O)C(=O)N[C@@H](CS)C(=O)N[C@@H](Cc1ccccc1)C(=O)O [P4, HTCRNGENICF] (H-HTCRNGENICF-OH; N-terminus and C-terminus assumed)",alleviated
